Measurements reported in publication PMC2778643, “Differential role of the menthol-binding residue Y745 in the antagonism of thermally gated TRPM8 channels” (Molecular Pain, 2009).

The chains behind the UniProt entries cited, without tags or fusion partners.
UniProt Q8R4D5, whole entry: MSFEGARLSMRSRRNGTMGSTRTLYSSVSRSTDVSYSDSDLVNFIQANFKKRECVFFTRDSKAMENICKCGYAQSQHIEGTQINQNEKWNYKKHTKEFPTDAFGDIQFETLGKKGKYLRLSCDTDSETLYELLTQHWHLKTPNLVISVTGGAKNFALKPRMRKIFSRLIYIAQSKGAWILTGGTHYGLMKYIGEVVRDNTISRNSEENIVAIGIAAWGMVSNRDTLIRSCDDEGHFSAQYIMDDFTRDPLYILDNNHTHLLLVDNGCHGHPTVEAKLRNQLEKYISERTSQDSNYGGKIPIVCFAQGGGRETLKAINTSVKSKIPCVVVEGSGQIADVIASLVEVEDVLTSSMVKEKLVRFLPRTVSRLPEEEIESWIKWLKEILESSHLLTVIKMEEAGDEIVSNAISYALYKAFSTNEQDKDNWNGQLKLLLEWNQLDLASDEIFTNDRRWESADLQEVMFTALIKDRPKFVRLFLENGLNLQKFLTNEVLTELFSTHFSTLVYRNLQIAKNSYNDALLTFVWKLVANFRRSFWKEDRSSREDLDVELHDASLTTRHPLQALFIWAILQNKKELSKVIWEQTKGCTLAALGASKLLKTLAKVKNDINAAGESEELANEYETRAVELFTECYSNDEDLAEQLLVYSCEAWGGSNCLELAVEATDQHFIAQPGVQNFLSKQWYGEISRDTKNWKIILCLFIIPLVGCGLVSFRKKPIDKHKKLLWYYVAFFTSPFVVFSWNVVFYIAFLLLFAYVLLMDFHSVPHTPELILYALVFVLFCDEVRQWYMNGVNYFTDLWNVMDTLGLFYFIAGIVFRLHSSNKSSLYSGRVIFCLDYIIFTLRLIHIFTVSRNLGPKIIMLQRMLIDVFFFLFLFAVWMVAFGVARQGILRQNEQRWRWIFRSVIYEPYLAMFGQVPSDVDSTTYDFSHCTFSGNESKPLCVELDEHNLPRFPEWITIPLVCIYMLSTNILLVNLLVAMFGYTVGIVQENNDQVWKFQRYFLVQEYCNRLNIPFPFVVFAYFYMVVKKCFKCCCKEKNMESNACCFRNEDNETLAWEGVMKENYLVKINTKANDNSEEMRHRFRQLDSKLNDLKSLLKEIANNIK

Columns and labels:
TRPM8-wt channel [1] = biological target: T1, TRPM8-wt channel (Mus musculus, UniProt Q8R4D5); test: Calcium imaging (Fura-2) of HEK293 cells expressing TRPM8-wt; format: cell-based; settings: cold-activated TRPM8-wt, calcium imaging (CI), this work
T1 construct: The full length cDNA encoding mouse TRPM8 (NM_134252) in pcDNA5; expressed in transfected cells; host or cells: HEK293
Method: The full length cDNA encoding mouse TRPM8 (NM_134252) in pcDNA5 (Invitrogen) was kindly provided by Dr. Ardem Patapoutian, (Scripps Research Institute, La Jolla, CA). The TRPM8-Y745H mutant was obtained by site-directed mutagenesis with the following primers: (for) 5'-[…]-3'; (rev) 5'-[…]-3', and Pfu Turbo Taq DNA Polymerase (Roche).
HEK293 cells were cultured in DMEM containing 10% of foetal bovine serum and antibiotics, and plated in 2 cm^2 wells at 400.000-500.000 cells/well. 20-24 h after plating, the cells were co-transfected with eGFP (0.3 μg/well) and TRPM8-wt or TRPM8-Y745H (2 μg/well) by incubating them with a solution containing the plasmid DNA and Lipofectamine 2000 (Invitrogen) for 5 hours. Subsequently, the cells were trypsinized and replated on poly-L-lysine-coated round coverslips (6 mm diameter). […]
Prior to experiment, HEK293 cells transfected with the TRPM8-wt/Y745H constructs were incubated with 5 μM Fura-2AM dissolved in the bath solution and 0.02% Pluronic (both from Invitrogen) for 40 min at 37°C in darkness. Fluorescence measurements were made with a Leica DM IRE2 inverted microscope fitted with a CCD camera (Imago QE Sensicam, TillPhotonics, Graefelfing, Germany). Fura-2 was excited at 340 nm and 380 nm with a Polychrome IV monochromator (Till Photonics) and the emitted fluorescence was filtered with a 510 nm longpass filter. […]

TRPM8-wt channel [2] = settings: 100 μM menthol-activated TRPM8-wt, electrophysiology (EP), block estimated at +50 mV; cited from earlier work

SMILES	IC50 (TRPM8-wt channel [1]) [µM]	IC50 (TRPM8-wt channel [2]) [nM]
Clc1ccccc1C(c1ccccc1)(c1ccccc1)n1ccnc1 [Clotrimazole, 1-[(2-chlorophenyl)diphenylmethyl]-1H-imidazole]	8 ± 1	1200
Clc1ccc(COC(Cn2ccnc2)c2ccc(Cl)cc2Cl)cc1 (stereo not drawn) [Econazole, 1-[2-[(4-chlorophenyl)methoxy]-2-(2,4-dichlorophenyl)ethyl]-1H-imidazole]	0.42 ± 0.07	
